# The supplement of paper PMC10849652
# Amino acid sequences for entries named in this document (tags omitted). A change or cut given only in a name is not applied to a line headed by its entry.
# UniProt Q9NVR2, whole entry, looked up: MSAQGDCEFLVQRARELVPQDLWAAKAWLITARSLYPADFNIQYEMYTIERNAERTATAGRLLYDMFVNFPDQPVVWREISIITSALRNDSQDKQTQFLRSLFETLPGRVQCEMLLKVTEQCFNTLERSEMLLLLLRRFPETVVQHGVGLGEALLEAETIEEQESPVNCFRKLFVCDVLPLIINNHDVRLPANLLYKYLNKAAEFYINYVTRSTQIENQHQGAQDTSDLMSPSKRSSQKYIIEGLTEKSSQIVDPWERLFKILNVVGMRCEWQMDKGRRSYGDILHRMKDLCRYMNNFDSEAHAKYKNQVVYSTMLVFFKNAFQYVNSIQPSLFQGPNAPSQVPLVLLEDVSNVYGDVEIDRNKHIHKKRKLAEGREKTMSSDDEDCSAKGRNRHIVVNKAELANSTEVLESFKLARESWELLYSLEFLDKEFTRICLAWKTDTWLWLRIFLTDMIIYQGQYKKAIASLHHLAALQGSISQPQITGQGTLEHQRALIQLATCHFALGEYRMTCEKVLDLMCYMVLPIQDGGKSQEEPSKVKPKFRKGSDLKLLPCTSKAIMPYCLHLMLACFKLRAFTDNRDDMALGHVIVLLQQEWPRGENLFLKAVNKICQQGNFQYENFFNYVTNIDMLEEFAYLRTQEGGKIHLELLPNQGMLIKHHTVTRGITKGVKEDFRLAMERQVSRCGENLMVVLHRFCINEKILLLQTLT
# UniProt Q9Y547: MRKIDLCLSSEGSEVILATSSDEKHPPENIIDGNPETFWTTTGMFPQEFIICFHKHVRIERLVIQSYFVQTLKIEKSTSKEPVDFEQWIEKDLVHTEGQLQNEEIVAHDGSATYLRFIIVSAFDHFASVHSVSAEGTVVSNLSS
# UniProt P20839, whole entry, looked up: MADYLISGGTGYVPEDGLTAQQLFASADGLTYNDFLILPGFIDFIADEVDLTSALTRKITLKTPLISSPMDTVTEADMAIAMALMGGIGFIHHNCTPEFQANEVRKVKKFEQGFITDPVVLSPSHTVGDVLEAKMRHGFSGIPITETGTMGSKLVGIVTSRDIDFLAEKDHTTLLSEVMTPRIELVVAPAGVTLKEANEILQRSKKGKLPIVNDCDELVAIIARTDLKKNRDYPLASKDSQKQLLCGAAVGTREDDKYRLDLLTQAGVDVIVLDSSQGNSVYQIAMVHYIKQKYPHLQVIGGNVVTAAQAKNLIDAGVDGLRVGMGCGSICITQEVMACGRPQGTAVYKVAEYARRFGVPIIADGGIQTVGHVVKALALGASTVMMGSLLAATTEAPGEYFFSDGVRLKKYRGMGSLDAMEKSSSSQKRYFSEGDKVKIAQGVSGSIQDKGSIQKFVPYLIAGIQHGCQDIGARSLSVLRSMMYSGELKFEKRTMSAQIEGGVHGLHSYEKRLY
# UniProt P38646: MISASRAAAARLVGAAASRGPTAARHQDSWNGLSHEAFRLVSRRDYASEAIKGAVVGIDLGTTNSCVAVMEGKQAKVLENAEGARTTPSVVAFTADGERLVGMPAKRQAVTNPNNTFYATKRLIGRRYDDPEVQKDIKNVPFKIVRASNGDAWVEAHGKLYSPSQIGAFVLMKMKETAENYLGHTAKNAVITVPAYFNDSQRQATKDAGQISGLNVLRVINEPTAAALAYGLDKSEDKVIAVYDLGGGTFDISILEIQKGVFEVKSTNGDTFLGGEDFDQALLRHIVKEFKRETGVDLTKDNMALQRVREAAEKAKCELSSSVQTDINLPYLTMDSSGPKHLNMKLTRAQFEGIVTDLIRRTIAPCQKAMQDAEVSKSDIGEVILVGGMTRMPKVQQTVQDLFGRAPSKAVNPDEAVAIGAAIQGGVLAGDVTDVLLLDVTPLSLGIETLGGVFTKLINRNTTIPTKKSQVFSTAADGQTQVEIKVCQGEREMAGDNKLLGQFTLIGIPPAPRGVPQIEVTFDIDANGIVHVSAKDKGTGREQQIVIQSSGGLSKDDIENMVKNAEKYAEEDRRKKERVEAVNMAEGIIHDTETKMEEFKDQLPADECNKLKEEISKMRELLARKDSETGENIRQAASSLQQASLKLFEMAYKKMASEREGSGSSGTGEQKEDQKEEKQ
# UniProt Q9P2D0: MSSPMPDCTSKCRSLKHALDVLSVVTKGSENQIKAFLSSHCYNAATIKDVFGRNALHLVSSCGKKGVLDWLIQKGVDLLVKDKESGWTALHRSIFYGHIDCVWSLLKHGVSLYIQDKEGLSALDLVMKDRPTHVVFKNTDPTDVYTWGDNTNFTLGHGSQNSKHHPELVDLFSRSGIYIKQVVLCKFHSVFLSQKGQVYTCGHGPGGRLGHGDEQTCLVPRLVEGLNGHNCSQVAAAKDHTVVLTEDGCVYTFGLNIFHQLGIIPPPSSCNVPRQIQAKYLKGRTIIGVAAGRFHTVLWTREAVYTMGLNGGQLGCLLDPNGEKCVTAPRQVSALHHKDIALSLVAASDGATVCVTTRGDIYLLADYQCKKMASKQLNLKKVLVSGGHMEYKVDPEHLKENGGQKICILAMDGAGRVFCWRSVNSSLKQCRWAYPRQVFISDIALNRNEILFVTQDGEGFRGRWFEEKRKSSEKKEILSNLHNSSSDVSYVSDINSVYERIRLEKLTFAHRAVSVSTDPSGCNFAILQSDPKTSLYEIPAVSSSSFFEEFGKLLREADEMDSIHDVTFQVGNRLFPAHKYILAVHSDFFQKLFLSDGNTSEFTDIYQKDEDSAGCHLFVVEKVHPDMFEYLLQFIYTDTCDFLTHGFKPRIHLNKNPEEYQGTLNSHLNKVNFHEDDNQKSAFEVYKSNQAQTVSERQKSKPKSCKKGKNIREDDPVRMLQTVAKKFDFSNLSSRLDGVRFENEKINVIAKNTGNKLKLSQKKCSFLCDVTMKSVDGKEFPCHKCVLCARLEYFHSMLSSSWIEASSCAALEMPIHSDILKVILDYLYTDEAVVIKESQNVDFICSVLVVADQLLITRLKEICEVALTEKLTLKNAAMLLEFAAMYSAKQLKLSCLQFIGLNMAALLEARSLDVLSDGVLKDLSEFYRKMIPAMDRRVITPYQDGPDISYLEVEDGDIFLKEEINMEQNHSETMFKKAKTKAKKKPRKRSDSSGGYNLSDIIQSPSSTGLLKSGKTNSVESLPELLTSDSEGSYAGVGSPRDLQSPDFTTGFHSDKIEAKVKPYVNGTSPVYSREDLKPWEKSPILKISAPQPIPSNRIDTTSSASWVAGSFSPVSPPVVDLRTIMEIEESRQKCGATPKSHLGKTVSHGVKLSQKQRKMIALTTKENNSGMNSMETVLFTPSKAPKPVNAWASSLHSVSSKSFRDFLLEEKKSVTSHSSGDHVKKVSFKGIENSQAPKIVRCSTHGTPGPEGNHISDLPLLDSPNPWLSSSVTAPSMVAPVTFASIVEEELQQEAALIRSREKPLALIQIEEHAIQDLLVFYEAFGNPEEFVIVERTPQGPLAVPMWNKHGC
# UniProt P80217: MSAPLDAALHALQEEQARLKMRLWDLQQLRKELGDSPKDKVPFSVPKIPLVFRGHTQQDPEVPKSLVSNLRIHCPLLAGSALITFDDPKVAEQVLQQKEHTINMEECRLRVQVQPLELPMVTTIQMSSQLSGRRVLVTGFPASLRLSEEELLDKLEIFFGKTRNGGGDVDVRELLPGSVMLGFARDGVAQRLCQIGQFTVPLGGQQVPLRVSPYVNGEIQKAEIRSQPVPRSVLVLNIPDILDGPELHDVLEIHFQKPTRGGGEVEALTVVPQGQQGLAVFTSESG
# UniProt P51553: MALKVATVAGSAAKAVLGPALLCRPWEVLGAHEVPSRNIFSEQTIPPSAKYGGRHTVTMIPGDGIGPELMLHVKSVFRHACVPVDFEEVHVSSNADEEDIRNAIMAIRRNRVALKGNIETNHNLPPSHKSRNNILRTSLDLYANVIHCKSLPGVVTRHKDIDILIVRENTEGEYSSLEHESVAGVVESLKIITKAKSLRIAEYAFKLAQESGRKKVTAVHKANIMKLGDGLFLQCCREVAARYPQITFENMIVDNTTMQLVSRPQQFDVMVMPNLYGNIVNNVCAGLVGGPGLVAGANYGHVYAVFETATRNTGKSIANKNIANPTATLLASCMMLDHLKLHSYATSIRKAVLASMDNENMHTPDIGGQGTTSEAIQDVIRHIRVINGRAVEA
# UniProt Q9P2H3, whole entry, looked up: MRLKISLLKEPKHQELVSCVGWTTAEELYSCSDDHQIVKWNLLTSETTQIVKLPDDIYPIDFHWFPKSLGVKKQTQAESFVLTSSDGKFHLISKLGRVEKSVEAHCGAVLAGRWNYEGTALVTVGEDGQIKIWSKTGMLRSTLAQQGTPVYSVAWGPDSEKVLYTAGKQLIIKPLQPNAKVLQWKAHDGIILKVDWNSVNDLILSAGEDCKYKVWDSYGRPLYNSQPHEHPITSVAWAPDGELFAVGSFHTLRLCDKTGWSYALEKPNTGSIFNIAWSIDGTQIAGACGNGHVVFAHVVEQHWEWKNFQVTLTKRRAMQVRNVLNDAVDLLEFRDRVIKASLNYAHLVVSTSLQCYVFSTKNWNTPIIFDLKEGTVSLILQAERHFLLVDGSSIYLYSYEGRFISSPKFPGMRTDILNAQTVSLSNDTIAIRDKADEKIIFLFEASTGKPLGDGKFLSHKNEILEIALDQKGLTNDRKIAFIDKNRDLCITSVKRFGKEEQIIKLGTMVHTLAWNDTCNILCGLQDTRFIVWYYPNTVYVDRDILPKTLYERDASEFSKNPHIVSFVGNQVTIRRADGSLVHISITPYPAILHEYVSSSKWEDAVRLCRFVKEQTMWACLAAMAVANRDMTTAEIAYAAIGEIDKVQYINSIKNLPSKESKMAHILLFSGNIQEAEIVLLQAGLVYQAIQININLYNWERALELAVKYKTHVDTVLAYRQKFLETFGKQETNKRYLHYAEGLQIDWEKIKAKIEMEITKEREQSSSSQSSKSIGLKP
# UniProt O15357: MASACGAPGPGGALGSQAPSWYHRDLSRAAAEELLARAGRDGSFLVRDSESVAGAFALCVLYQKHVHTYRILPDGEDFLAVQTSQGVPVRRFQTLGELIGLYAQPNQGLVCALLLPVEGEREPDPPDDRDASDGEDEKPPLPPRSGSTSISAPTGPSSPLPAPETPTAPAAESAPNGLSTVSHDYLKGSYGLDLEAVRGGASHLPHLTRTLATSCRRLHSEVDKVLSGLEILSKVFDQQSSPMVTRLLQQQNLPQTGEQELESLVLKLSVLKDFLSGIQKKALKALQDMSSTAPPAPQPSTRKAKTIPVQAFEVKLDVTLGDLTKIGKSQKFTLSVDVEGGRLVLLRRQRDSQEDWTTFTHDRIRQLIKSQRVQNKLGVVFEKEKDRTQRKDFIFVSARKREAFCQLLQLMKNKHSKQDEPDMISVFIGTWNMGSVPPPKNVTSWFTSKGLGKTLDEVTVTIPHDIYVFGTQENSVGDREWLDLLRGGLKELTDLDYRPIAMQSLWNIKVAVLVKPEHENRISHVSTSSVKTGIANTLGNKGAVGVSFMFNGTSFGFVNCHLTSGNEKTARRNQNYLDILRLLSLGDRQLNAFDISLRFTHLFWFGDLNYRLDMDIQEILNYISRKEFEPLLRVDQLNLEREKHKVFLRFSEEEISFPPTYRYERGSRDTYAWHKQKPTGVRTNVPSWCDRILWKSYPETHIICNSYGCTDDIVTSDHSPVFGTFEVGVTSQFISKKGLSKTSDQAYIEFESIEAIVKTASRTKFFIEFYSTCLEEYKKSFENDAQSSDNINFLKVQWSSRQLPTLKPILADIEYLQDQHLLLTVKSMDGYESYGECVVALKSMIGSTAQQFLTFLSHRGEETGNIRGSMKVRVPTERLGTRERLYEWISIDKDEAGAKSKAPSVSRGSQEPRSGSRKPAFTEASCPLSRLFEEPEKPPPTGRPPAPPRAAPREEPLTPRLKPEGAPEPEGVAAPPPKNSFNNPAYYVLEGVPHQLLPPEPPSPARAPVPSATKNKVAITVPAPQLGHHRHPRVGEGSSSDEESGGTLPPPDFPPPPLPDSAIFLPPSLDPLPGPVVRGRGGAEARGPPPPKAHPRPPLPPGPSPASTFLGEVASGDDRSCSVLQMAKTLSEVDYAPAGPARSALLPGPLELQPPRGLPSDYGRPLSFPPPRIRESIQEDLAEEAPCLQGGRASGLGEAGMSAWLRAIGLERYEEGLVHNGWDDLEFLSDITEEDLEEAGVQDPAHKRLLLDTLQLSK
# UniProt O60921: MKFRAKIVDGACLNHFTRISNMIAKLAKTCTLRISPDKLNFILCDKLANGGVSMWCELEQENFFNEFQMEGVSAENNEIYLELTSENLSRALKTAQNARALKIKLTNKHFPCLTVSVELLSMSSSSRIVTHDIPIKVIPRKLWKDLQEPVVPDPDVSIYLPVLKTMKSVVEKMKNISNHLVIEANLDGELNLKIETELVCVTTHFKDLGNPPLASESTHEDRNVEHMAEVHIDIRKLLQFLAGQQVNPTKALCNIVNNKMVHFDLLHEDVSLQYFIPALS
# UniProt P04792, whole entry, looked up: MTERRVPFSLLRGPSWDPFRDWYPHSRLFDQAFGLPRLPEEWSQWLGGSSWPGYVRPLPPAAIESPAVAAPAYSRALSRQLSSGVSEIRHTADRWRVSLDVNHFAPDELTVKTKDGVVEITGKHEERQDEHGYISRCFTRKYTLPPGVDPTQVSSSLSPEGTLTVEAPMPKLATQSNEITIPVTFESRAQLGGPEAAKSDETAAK
# The list shows a part of the results.
# Key:
# Experiment in all cases: log2 fold change, soluble protein after heating vs DMSO (PISA); higher = thermal stabilisation; K562 lysate, 10 uM; active = over 0.2 and 3.5 SD of the protein, either way, in both replicates (recomputed)
# alvocidib = compound: CN1CC[C@H](c2c(O)cc(O)c3c(=O)cc(-c4ccccc4Cl)oc23)[C@H](O)C1 [alvocidib]
# In short: (§1)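 Quantification was by TMTpro 16plex LC-MS/MS with equalised channel sums, applied to the supernatant after 21,000xg for 90 min. Samples were crude K562 extract at 1 mg/mL protein in PBS pH 7.4 with 1 mM MgCl2, treated with 10 μM compound for 30 min, heated for 3 min across 48°C-58°C, pooled and brought to 0.5% NP-40 at 4°C. Values are log-two fold changes in thermal stability relative to solvent controls, from duplicates.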
# Tubastatin A = compound: CN1CCc2c(c3ccccc3n2Cc2ccc(C(=O)NO)cc2)C1 [Tubastatin A]
# In short: as §1
# [1] = compound: CNC(=O)C1=CC=CC=C1NC2=NC(=NC=C2Cl)NC3=C(C=C(C=C3)N4CCOCC4)OC
# In short: as §1
# defactinib = compound: CNC(=O)c1ccc(Nc2ncc(C(F)(F)F)c(NCc3nccnc3N(C)S(C)(=O)=O)n2)cc1 [defactinib]
# In short: as §1
# [2] = compound: CNc1nc(-c2ccc3c(N)n[nH]c3c2)cc(N2C[C@@H](C(=O)NC3CCCCC3)CC[C@H]2C)n1
# In short: as §1
# encorafenib = compound: COC(=O)N[C@@H](C)CNc1nccc(-c2cn(C(C)C)nc2-c2cc(Cl)cc(NS(C)(=O)=O)c2F)n1 [encorafenib]
# In short: as §1
# [3] = compound: COC(=O)[C@H](CCSC)NC(=O)C1=C(C=C(C=C1)NC[C@H](CS)N)C2=CC=CC=C2
# In short: as §1
# alisertib = compound: COc1cc(Nc2ncc3c(n2)-c2ccc(Cl)cc2C(c2c(F)cccc2OC)=NC3)ccc1C(=O)O [alisertib]
# In short: as §1
# [4] = compound: COc1cc2nc(-c3cc(F)ccc3O)nc(N[C@@H]3CNC[C@H]3C(C)(C)O)c2cc1OC
# In short: as §1
# gefitinib = compound: COc1cc2ncnc(Nc3ccc(F)c(Cl)c3)c2cc1OCCCN1CCOCC1 [gefitinib]
# In short: as §1
# lapatinib = compound: CS(=O)(=O)CCNCc1ccc(-c2ccc3ncnc(Nc4ccc(OCc5cccc(F)c5)c(Cl)c4)c3c2)o1 [lapatinib]
# In short: as §1
# pictilisib = compound: CS(=O)(=O)N1CCN(Cc2cc3nc(-c4cccc5[nH]ncc45)nc(N4CCOCC4)c3s2)CC1 [pictilisib]
# In short: as §1
# crizotinib = compound: C[C@@H](Oc1cc(-c2cnn(C3CCNCC3)c2)cnc1N)c1c(Cl)ccc(F)c1Cl [crizotinib]
# In short: as §1
# [5] = compound: C[C@H](C1=CC=C(C=C1)C(=O)NC2=C3C=CNC3=NC=C2)N
# In short: as §1
# duvelisib = compound: C[C@H](Nc1ncnc2nc[nH]c12)c1cc2cccc(Cl)c2c(=O)n1-c1ccccc1 [duvelisib]
# In short: as §1
# gandotinib = compound: Cc1cc(Nc2cc(CN3CCOCC3)c3nc(C)c(Cc4ccc(Cl)cc4F)n3n2)n[nH]1 [gandotinib]
# In short: as §1
# tozasertib = compound: Cc1cc(Nc2cc(N3CCN(C)CC3)nc(Sc3ccc(NC(=O)C4CC4)cc3)n2)n[nH]1 [tozasertib]
# In short: as §1
# doramapimod = compound: Cc1ccc(-n2nc(C(C)(C)C)cc2NC(=O)Nc2ccc(OCCN3CCOCC3)c3ccccc23)cc1 [doramapimod]
# In short: as §1
# bafetinib = compound: Cc1ccc(NC(=O)c2ccc(CN3CC[C@H](N(C)C)C3)c(C(F)(F)F)c2)cc1Nc1nccc(-c2cncnc2)n1 [bafetinib]
# In short: as §1
# [6] = compound: Cc1cccc(CC(=O)N2CCc3c2ccc(-c2cn(C)c4ncnc(N)c24)c3F)n1
# In short: as §1
Target,log2 fold change (alvocidib),log2 fold change (Tubastatin A),log2 fold change [1],log2 fold change (defactinib),log2 fold change [2],log2 fold change (encorafenib),log2 fold change [3],log2 fold change (alisertib),log2 fold change [4],log2 fold change (gefitinib),log2 fold change (lapatinib),log2 fold change (pictilisib),log2 fold change (crizotinib),log2 fold change [5],log2 fold change (duvelisib),log2 fold change (gandotinib),log2 fold change (tozasertib),log2 fold change (doramapimod),log2 fold change (bafetinib),log2 fold change [6]
INTS10 (UniProt Q9NVR2),inactive: -0.009,inactive: -0.143,inactive: -0.033,inactive: 0.016,inactive: -0.045,inactive: -0.017,inactive: 0.043,inactive: -0.093,inactive: -0.097,inactive: 0.049,inactive: 0.097,inactive: -0.093,inactive: -0.04,inactive: 0.027,inactive: -0.09,inactive: -0.168,inactive: 0.011,inactive: 0.026,inactive: -0.052,inactive: 0
IGF2BP2 (UniProt Q9Y6M1),inactive: 0.016,inactive: -0.124,inactive: 0.043,inactive: -0.008,inactive: -0.014,inactive: 0.004,inactive: 0.201,inactive: 0.042,inactive: -0.005,inactive: 0.001,inactive: -0.034,inactive: -0.015,inactive: 0.012,inactive: -0.031,inactive: 0,inactive: 0.009,inactive: -0.011,inactive: 0.021,inactive: -0.093,inactive: 0.048
IGSF8 (UniProt Q969P0),inactive: -0.005,inactive: 0,inactive: 0.026,inactive: -0.038,inactive: 0.003,inactive: 0.138,inactive: -0.089,inactive: -0.149,inactive: -0.003,inactive: 0.115,inactive: -0.04,inactive: -0.05,inactive: -0.145,inactive: -0.113,inactive: -0.094,inactive: 0.022,inactive: 0.015,inactive: 0,inactive: -0.027,inactive: 0.119
HSPB11 (UniProt Q9Y547),inactive: 0,inactive: 0.052,inactive: -0.024,inactive: 0.002,inactive: 0.068,inactive: -0.009,inactive: -0.044,inactive: -0.001,inactive: 0.004,inactive: 0.015,inactive: -0.021,inactive: 0.014,inactive: -0.036,inactive: -0.064,inactive: -0.025,inactive: 0.167,inactive: -0.035,inactive: -0.041,inactive: -0.058,inactive: 0.025
IMPDH1 isoform 6 (UniProt P20839),inactive: -0.009,active: -0.226,inactive: 0.002,inactive: -0.002,inactive: 0.018,inactive: -0.001,active: -0.478,inactive: 0.004,inactive: -0.002,inactive: 0.005,inactive: -0.001,inactive: 0.01,inactive: -0.021,inactive: -0.061,inactive: -0.013,inactive: 0.046,inactive: 0.014,inactive: 0.033,inactive: -0.037,inactive: 0.064
INF2 (UniProt Q27J81),inactive: -0.027,inactive: -0.062,inactive: 0.022,inactive: 0.117,inactive: -0.104,inactive: -0.068,inactive: 0.083,inactive: -0.008,inactive: -0.01,inactive: -0.009,inactive: 0.024,inactive: -0.019,inactive: -0.043,inactive: 0.002,inactive: -0.051,inactive: -0.001,inactive: 0.04,inactive: 0.049,inactive: -0.068,inactive: 0.128
HSPA9 (UniProt P38646),inactive: 0.003,inactive: 0.033,inactive: -0.043,inactive: -0.001,inactive: -0.042,inactive: -0.036,inactive: -0.039,inactive: 0.014,inactive: -0.014,inactive: 0.003,inactive: 0.006,inactive: 0.014,inactive: 0.05,inactive: 0.026,inactive: 0,inactive: -0.035,inactive: 0.024,inactive: -0.013,inactive: 0.012,inactive: -0.038
IBTK (UniProt Q9P2D0),inactive: 0.083,inactive: -0.064,inactive: 0.023,inactive: -0.016,inactive: 0.046,inactive: 0.015,inactive: -0.167,inactive: -0.031,inactive: -0.027,inactive: 0.074,inactive: -0.029,inactive: 0.022,inactive: 0.013,inactive: 0.09,inactive: -0.011,inactive: -0.089,inactive: 0.013,inactive: 0.052,inactive: 0.015,inactive: -0.123
IFI35 isoform 2 (UniProt P80217),inactive: -0.034,inactive: 0.039,inactive: 0.01,inactive: -0.027,inactive: 0.016,inactive: 0.005,inactive: 0.033,inactive: -0.03,inactive: -0.018,inactive: -0.006,inactive: -0.026,inactive: -0.028,inactive: -0.019,inactive: -0.193,inactive: -0.007,inactive: 0.064,inactive: -0.021,inactive: 0.016,inactive: -0.027,inactive: 0.032
IDH3G (UniProt P51553),inactive: 0.023,inactive: -0.027,inactive: -0.015,inactive: 0,inactive: -0.108,inactive: 0.005,inactive: 0.043,inactive: 0,inactive: -0.001,inactive: -0.046,inactive: -0.006,inactive: -0.029,inactive: -0.05,inactive: -0.028,inactive: -0.014,inactive: 0.015,inactive: -0.008,inactive: 0.011,inactive: -0.015,inactive: 0.003
IFT80 isoform 3 (UniProt Q9P2H3),inactive: 0.076,inactive: -0.043,inactive: 0.076,inactive: -0.163,inactive: 0.08,inactive: -0.024,inactive: 0.009,inactive: -0.007,inactive: 0.004,inactive: 0.015,inactive: -0.075,inactive: -0.083,inactive: -0.078,inactive: -0.044,inactive: 0.077,inactive: -0.034,inactive: 0.005,inactive: 0.107,inactive: 0.025,inactive: 0.088
INPPL1 (UniProt O15357),inactive: -0.001,inactive: -0.177,inactive: 0.039,inactive: 0,inactive: -0.001,inactive: 0.009,inactive: 0.037,inactive: 0.036,inactive: -0.013,inactive: 0.01,inactive: 0.023,inactive: 0.006,inactive: -0.047,inactive: -0.05,inactive: -0.004,inactive: -0.065,inactive: 0.029,inactive: 0.01,inactive: -0.05,inactive: 0.03
IDH3A (UniProt P50213),inactive: 0.014,inactive: -0.008,inactive: -0.012,inactive: 0.01,inactive: -0.022,inactive: -0.028,inactive: 0.017,inactive: -0.005,inactive: -0.018,inactive: -0.035,inactive: -0.012,inactive: -0.025,inactive: -0.018,inactive: 0.034,inactive: 0.017,inactive: -0.041,inactive: -0.003,inactive: 0.007,inactive: -0.007,inactive: -0.026
HUS1 (UniProt O60921),inactive: -0.018,inactive: 0.039,inactive: 0.079,inactive: -0.027,inactive: 0.007,inactive: 0.011,inactive: 0.059,inactive: -0.023,inactive: 0.029,inactive: 0.036,inactive: -0.016,inactive: -0.04,inactive: -0.015,inactive: -0.028,inactive: 0.011,inactive: 0.007,inactive: -0.029,inactive: 0.065,inactive: -0.032,inactive: -0.007
HSPB1 (UniProt P04792),inactive: 0.003,inactive: -0.023,inactive: -0.003,inactive: 0,inactive: -0.036,inactive: -0.001,inactive: 0.025,inactive: 0.012,inactive: 0.009,inactive: -0.012,inactive: -0.017,inactive: -0.013,inactive: 0.036,inactive: 0.008,inactive: 0.014,inactive: -0.018,inactive: -0.017,active: -0.31,inactive: -0.031,inactive: -0.021
HUWE1 (UniProt Q7Z6Z7),inactive: -0.006,inactive: -0.022,inactive: 0.026,inactive: -0.009,inactive: 0.012,inactive: 0.006,inactive: -0.001,inactive: 0.007,inactive: 0.002,inactive: -0.005,inactive: -0.015,inactive: -0.025,inactive: -0.001,inactive: -0.013,inactive: 0.009,inactive: 0.005,inactive: -0.006,inactive: 0.004,inactive: -0.028,inactive: 0.005
